In the supplement of paper PMC6078165:
Values are relative to the signal before dosing, not to a vehicle control; the signal also falls without drug.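 Fibroblast labels denote human fibroblasts, mainly primary ones from uterus (C12385, HUF), lung (H6013), bone (Hs27A), adrenal (HADF) and skin (WS1), plus mammary HMF and breast cancer-associated Hs343T. Cancer cells are basal-like or mesenchymal-like triple-negative breast cancer lines. A hit is a response shift exceeding 3x replicate standard deviation. The tissue of the other fibroblasts is not given here.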

Tested on: Hs578T
Experiment: relative JC-1 red fluorescence (viability) vs pre-drug, coculture with fibroblast (fraction); higher = more viable cancer cells
Description: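 JC-1 labelled TNBC cells cocultured 1:1 (1,500 cells each) with CellTrace Violet stained primary or stromal fibroblasts in 384-well plates in FluoroBrite medium, treated with one of 42 anticancer drugs at 0.1, 1, 10 or 100 uM. JC-1 red fluorescence (mitochondrial integrity in cancer cells only) was read by plate reader every 8 h for 72 h. Values are normalised to each well's pre-drug value. The stock of one drug was tenfold lower, so its dose labels may be too high.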

CCCCCOC(=O)Nc1nc(=O)n([C@@H]2O[C@H](C)[C@@H](O)[C@H]2O)cc1F [Capecitabine]
relative JC-1 red fluorescence
Conditions	8 h	16 h	24 h	32 h	40 h	48 h	56 h	64 h	72 h
10 µM	0.912	0.801	0.735	0.6983	0.6382	0.5996	0.573	0.53	0.516
100 µM	0.92	0.809	0.758	0.714	0.658	0.621	0.594	0.554	0.535

relative JC-1 red fluorescence
Conditions	8 h	16 h	24 h	32 h	40 h	48 h	56 h	64 h	72 h
10 µM, coculture fibroblast: C12385	0.862	0.708	0.6621	0.5836	0.526	0.486	0.453	0.443	0.425
10 µM, coculture fibroblast: H6013	0.834	0.743	0.681	0.637	0.6	0.583	0.563	0.558	0.526
10 µM, coculture fibroblast: H6019	0.786	0.695	0.645	0.554	0.512	0.482	0.449	0.424	0.398
10 µM, coculture fibroblast: H6076	0.94	0.861	0.796	0.772	0.722	0.715	0.685	0.679	0.6716
10 µM, coculture fibroblast: H6231	0.9306	0.84	0.737	0.687	0.613	0.578	0.528	0.502	0.478
10 µM, coculture fibroblast: HADF	0.9074	0.8065	0.7331	0.6906	0.66	0.63	0.594	0.5789	0.5496
10 µM, coculture fibroblast: HCFa	0.862	0.755	0.68	0.601	0.534	0.502	0.468	0.451	0.424
10 µM, coculture fibroblast: HCPF	0.9254	0.822	0.7572	0.727	0.657	0.624	0.6	0.558	0.538
10 µM, coculture fibroblast: HHSteC	0.887	0.805	0.7549	0.7192	0.667	0.6384	0.6169	0.592	0.552
10 µM, coculture fibroblast: HMF	0.9342	0.858	0.784	0.752	0.688	0.658	0.606	0.571	0.548
10 µM, coculture fibroblast: HPFa	0.908	0.812	0.7403	0.676	0.623	0.581	0.537	0.509	0.462
10 µM, coculture fibroblast: HUF	0.883	0.731	0.704	0.615	0.5489	0.5136	0.479	0.46	0.445
10 µM, coculture fibroblast: Hs27A	0.915	0.856	0.796	0.751	0.697	0.672	0.633	0.618	0.565
10 µM, coculture fibroblast: Hs343T	0.978	0.823	0.737	0.695	0.609	0.566	0.516	0.478	0.459
10 µM, coculture fibroblast: WS1	0.832	0.698	0.614	0.527	0.467	0.433	0.401	0.382	0.365
100 µM, coculture fibroblast: C12385	0.859	0.751	0.692	0.63	0.572	0.542	0.514	0.495	0.4771
100 µM, coculture fibroblast: H6013	0.899	0.831	0.79	0.774	0.745	0.744	0.726	0.716	0.688
100 µM, coculture fibroblast: H6019	0.759	0.6902	0.696	0.612	0.582	0.562	0.54	0.525	0.502
100 µM, coculture fibroblast: H6076	0.968	0.878	0.827	0.806	0.759	0.747	0.726	0.708	0.704
100 µM, coculture fibroblast: H6231	0.9066	0.8245	0.762	0.737	0.684	0.662	0.626	0.597	0.584
100 µM, coculture fibroblast: HADF	0.9176	0.847	0.792	0.755	0.71	0.68	0.636	0.609	0.568
100 µM, coculture fibroblast: HCFa	0.901	0.832	0.787	0.758	0.703	0.681	0.649	0.623	0.586
100 µM, coculture fibroblast: HCPF	0.934	0.844	0.81	0.781	0.733	0.712	0.709	0.666	0.639
100 µM, coculture fibroblast: HHSteC	0.909	0.8369	0.7939	0.758	0.719	0.7006	0.6763	0.6552	0.62489
100 µM, coculture fibroblast: HMF	0.912	0.8175	0.767	0.74	0.683	0.656	0.635	0.606	0.589
100 µM, coculture fibroblast: HPFa	0.9539	0.8631	0.8259	0.7841	0.756	0.732	0.698	0.683	0.6476
100 µM, coculture fibroblast: HUF	0.9238	0.783	0.799	0.708	0.665	0.639	0.61	0.595	0.585
100 µM, coculture fibroblast: Hs27A	0.9111	0.875	0.8364	0.811	0.773	0.758	0.727	0.721	0.667
100 µM, coculture fibroblast: Hs343T	0.925	0.802	0.774	0.757	0.704	0.683	0.66	0.626	0.614
100 µM, coculture fibroblast: WS1	0.8072	0.717	0.676	0.601	0.537	0.519	0.494	0.483	0.468
